The list shows a part of the results. The main result of the screen is listed elsewhere. These columns were measured beside it and carry no call. Most of these compounds were active or inconclusive in the main read-out, so they are no random draw. Potencies come from curve fits of mixed quality, noted in brackets.
Test: qHTS Assay for Lipid Storage Modulators in Drosophila S3 Cells;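 as to cell number change: cells counted by Cell Tracker Red CMTPX staining in the red channel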
Conditions: BODIPY lipid droplet fluorescence, 18-24 h; for cell number change: measured here: cell count max response, cells fed with added oleic acid
Method in brief: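 Laser-scanning cytometry quantifies lipid droplet accumulation (500–530 nm total intensity; droplet/cell object ratio) in oleic acid-fed (400 uM added) Drosophila S3 cells treated with a concentration series. 20 uM Triacsin C defined 100% inhibition.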

[1] = measured here: lipid fluorescence (Fed channel) AC50, cells fed with added oleic acid
[2] = measured here: cell number channel AC50, cells fed with added oleic acid

Compound: Cc1ccc(NC(=O)CCN2CCN(C)CC2)cc1
- cell number change: -12.3%
- AC50 [1]: 58 nM [falling, full curve, poor fit]

Compound: Cc1ccccc1C(=O)NCCSc1ccccc1
- AC50 [1]: 651 nM [falling, single point]

Compound: CCCCOC(=O)C1CN(c2ccccc2)N=C1C(C)=O (configuration not stated)
- cell number change: -55.6%
- AC50 [2]: 29100 nM [falling, single point]
- AC50 [1]: 29100 nM [falling, single point]

Compound: Fc1ccc(C(CNC(=S)NC2CCCCC2)N2CCOCC2)cc1 (configuration not stated)
- cell number change: 6.22%
- AC50 [2]: 6510 nM [rising, single point]
- AC50 [1]: 3660 nM [rising, partial curve]

Compound: Cc1cc(SCC(=O)Nc2cccnc2Cl)nc2ccccc12
- AC50 [2]: 651 nM [rising, single point]
- AC50 [1]: 651 nM [rising, partial curve, poor fit]

Compound: CCn1c(COc2ccc(C)cc2)nnc1SCc1ccc(C#N)cc1
- cell number change: -32.3%
- AC50 [2]: 18400 nM [falling, single point]
- AC50 [1]: 580 nM [rising, single point]

Compound: CC1CCN(c2nc3c(c(=O)n(C)c(=O)n3C)n2CCSc2nc3ccccc3s2)CC1
- cell number change: -19.9%
- AC50 [1]: 206 nM [falling, full curve, poor fit]

Compound: Cc1ccc(N2C(=O)c3ccccc3C2=O)cc1
- cell number change: -6.52%
- AC50 [1]: 731 nM [falling, full curve, poor fit]

Compound: CCn1nc(C(=O)Nc2ccccc2N2CCCC2)c2ccccc2c1=O
- cell number change: 9.24%

Compound: COC(=O)CSc1nnc(-c2ccc(S(=O)(=O)NCc3cccs3)cc2)o1
- AC50 [2]: 820 nM [falling, full curve]
- AC50 [1]: 920 nM [falling, full curve]

Compound: CCSc1nnc(-c2cccnc2)n1-c1ccc(C)c(Cl)c1
- AC50 [2]: 580 nM [falling, single point]
- AC50 [1]: 920 nM [rising, full curve, poor fit]

Compound: COc1ccc(N2CCN(Cc3nnc(-c4ccccc4)o3)CC2)cc1
- cell number change: 0.603%
- AC50 [1]: 25900 nM [rising, single point]

Compound: COc1cccc(/C=N/NC(=O)c2ccccc2)c1OS(=O)(=O)c1ccccc1
- cell number change: -2.84%
- AC50 [2]: 2310 nM [falling, partial curve, poor fit]

Compound: COc1ccccc1CNC(=S)NCc1ccc(F)cc1
- cell number change: 10.8%
- AC50 [1]: 794 nM [falling, partial curve]

Compound: O=C(c1ccco1)N1CCN(C(=S)Nc2ccc(Br)cc2Cl)CC1
- cell number change: -15.6%

Compound: Cc1ccccc1Cn1nc(C)c(NC(=O)c2cc(-c3cccs3)on2)c1C
- cell number change: -4.44%
- AC50 [1]: 184 nM [rising, full curve, poor fit]

Reference: PubChem BioAssay AID2685 (National Center for Advancing Translational Sciences (NCATS), 2010)
